A short description of the experiment: qHTS Assay to Find Inhibitors of Chronic Active B-Cell Receptor Signaling. The settings on record: ABC-DLBCL IkBa-CBG/CBR reporter, luminescence ratio (green luciferase fused to IkBa over red control in TMD8 lymphoma cells), 4 h. The gist of the method:
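Concentration-response series (up to 46 uM) were applied to TMD8 dual-reporter cells for 4 h at 37C with doxycycline. Green/red ratio, after filter-overlap correction, defined %Activity; red signal alone was normalised to basal cells and zero luminescence.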
(In general: In qHTS, concentration-response curves come from the screen itself.)

The mark [1] stands for this setting: measured here: CBR red luminescence, cell number.
Where [2] appears, read: measured here: IkBa-CBG green luminescence.

The list shows a part of the results. Shown are side measurements of this screen, not its main read-out; they come without a call. The list favours compounds with an active or inconclusive main result. The note in brackets gives the kind of curve behind each potency; many fits are weak.

For orientation: AC50 means the concentration giving half of the maximal activity seen. For the compound `COC(=O)CSc1nc2c(c(-c3ccco3)c1C#N)CCCC2`, the AC50 under setting [1] is 22.4 µM [falling, single point].
On the same count and under the same terms, in the case of `O=C(N/N=C/c1ccccc1Cl)c1cccc(F)c1` it was 25.1 µM [falling, single point].
As to `O=C(Cn1c(COc2ccccc2)nc2ccccc21)Nc1cc(Cl)c(Cl)cc1Cl`, the AC50 under setting [1] was 12.6 µM [falling, partial curve, poor fit].
On the same count and under the same terms, the figure for `NC(=O)CSc1n[nH]c(=O)n1CCc1ccccc1` is 8.91 µM [rising, partial curve]; for `COc1cccc(C(=O)Nc2cc(NC(=O)c3cccs3)ccc2C)c1` it is 17.8 µM [falling, partial curve, poor fit].
For the compound `CCOC(=O)C1=C(COC(=O)C(CC)c2ccccc2)NC(=O)NC1C` (stereo not given), the AC50 under setting [1] was 14.6 µM [falling, partial curve].
On to `CCOC(=O)c1cc(CC)sc1NC(=O)c1ccc2c(c1)OCCO2`, for which the AC50 under setting [1] was 3.26 µM [rising, single point].
In the case of `CC1(C)CC(NC(=O)CC2CCCCC2)CC(C)(C)N1`, under setting [1], the AC50 was 35.5 µM [falling, single point].
In the case of `Nc1ccc2nn(-c3cccc4ccccc34)nc2c1`, the AC50 under setting [1] is 0.708 µM [falling, partial curve, poor fit].
Take `CC(C)(C)NC(=O)C[C@H]1C[C@H](C(=O)N2CCOCC2)[C@@]2(CCC3CCCC3)c3[nH]c4ccc(Cl)cc4c3CCN2C1=O`: the AC50 under setting [1] was 10.3 µM [falling, partial curve, poor fit].
Turning to `O=S(=O)(NCC(c1ccc2c(c1)OCO2)N1CCOCC1)c1ccc(Cl)cc1` (stereo not given), under setting [1], the AC50 is 3.26 µM [rising, single point].
As to `COc1ccc(-c2nc(-c3ccc4c(c3)OCO4)[nH]c2-c2ccc(OC)cc2)cc1`, the AC50 is 16.4 µM [falling, partial curve] under setting [1] and 29.1 µM [rising, partial curve, poor fit] under setting [2].
As for `Cc1cc(=O)oc2cc(OCc3ccc(C(=O)OCC(=O)Nc4ccc(N(C)C)cc4)cc3)ccc12`, the half-maximal activity concentration (AC50) under setting [1] was 5.01 µM [falling, partial curve, poor fit].
In the case of `COc1ccc(N(CC(=O)N2CC=C(c3ccccc3)CC2)S(=O)(=O)c2c(C)noc2C)cc1`, the concentration at half-maximal activity (AC50) under setting [1] was 14.1 µM [rising, partial curve, poor fit].
Still for that read-out and setting: in the case of `Cn1nccc1C(=O)Nc1sc2c(c1C(N)=O)CCCC2` it was 2.24 µM [rising, partial curve, poor fit].
As to `CC(NC(=O)Nc1ccc(Cl)cc1)c1ccccc1` (stereo not given), the AC50 under setting [1] is 1.26 µM [rising, full curve, poor fit].
On the same count and under the same terms, in the case of `COc1cccc(N=Cc2c(O)c3ccccc3oc2=O)c1` it was 7.08 µM [falling, partial curve, poor fit]; in that of `O=C(CN1C(=O)COc2ccccc21)Nc1ccc(F)cc1`, 1.41 µM [falling, partial curve, poor fit].
As for `Cc1cccnc1NC(=O)Nc1cccc(C(F)(F)F)c1`, the AC50 under setting [1] is 0.651 µM [rising, full curve, poor fit].
Take `CCc1nc2oc3cc(OC)ccc3c(=O)c2c(=O)n1Cc1ccco1`: under setting [1], the AC50 is 7.08 µM [falling, partial curve].
In the case of `C=C(C)C(=O)OCC(O)COc1ccc(C(C)(C)c2ccc(OCC(O)COC(=O)C(=C)C)cc2)cc1` (stereo not given), the AC50 under setting [1] was 7.31 µM [falling, partial curve].
On the same count and under the same terms, the figure for `Cn1ncc2c(Nc3cccc4ccccc34)ncnc21` is 29.1 µM [falling, single point].
As for `CCS(=O)(=O)N1Cc2ccccc2CC1C(=O)Nc1nc2ccc(F)cc2s1` (stereo not given), the AC50 reads like this: under setting [1], 0.82 µM [falling, full curve]; under setting [2], 23.1 µM [rising, partial curve, poor fit].
Regarding `C/C(=N\NC(=O)c1cccnc1)c1ccc(C)c([N+](=O)[O-])c1`, under setting [1], the AC50 was 25.1 µM [falling, single point].
As for `COc1ccc(-n2cnc3cc(NS(=O)(=O)c4ccc(C)cc4)ccc32)cc1`, the concentration at half-maximal activity (AC50) under setting [1] is 14.6 µM [falling, partial curve].
Take `O=C(NCC1CCCN(C2Cc3ccccc3C2)C1)c1cccs1` (stereo not given): the concentration at half-maximal activity (AC50) under setting [1] was 3.55 µM [falling, partial curve, poor fit].
Same read-out and setting: in the case of `Fc1ccc(Nc2c3c(nc4ccccc24)CCC3)cc1` it was 14.1 µM [falling, single point]; in that of `Nc1c(C(=O)Nc2ccc3c(c2)OCCO3)nnn1Cc1cccc(Br)c1`, 16.4 µM [falling, single point]; in that of `CCOc1ccc(NC(=O)C(Cc2ccccc2)N2C(=O)c3cccc4cccc(c34)C2=O)cc1` (stereo not given), 14.1 µM [falling, single point].
Take `CCN(CC)C(=O)C1CCCN(C(=O)Nc2ccc3nsnc3c2)C1` (stereo not given): the AC50 under setting [1] was 35.5 µM [falling, single point].
`O=S(=O)(NCc1ccc(Cl)cc1)c1cnc[nH]1`: the AC50 under setting [1] was 23.1 µM [falling, single point].
Consider `CCOC(=O)C1CCN(C(=O)c2cc3cc4ccc(OC)cc4nc3o2)CC1`, for which the AC50 under setting [1] was 1.78 µM [falling, full curve].
Turning to `O=C(NCc1ccccn1)c1c(O)c2cccc3c2n(c1=O)CC3`, the AC50 under setting [1] was 35.5 µM [falling, single point].
With `CC(=O)OCC(OC(C)=O)C(OC(C)=O)C(OC(C)=O)C(=O)Nc1cccc(C)c1` (stereo not given), the AC50 under setting [1] is 0.112 µM [rising, full curve, poor fit].
For the compound `O=S(=O)(c1ccc2c(c1)CCC2)N1CCNCC1`, the AC50 under setting [1] was 25.9 µM [rising, partial curve, poor fit].
Still for that read-out and setting: in the case of `CCOC(=O)C1=C(C)N=c2s/c(=C3/C(=O)Nc4ccccc43)c(=O)n2C1c1ccc(C)cc1` (stereo not given) it was 18.4 µM [falling, partial curve, poor fit]; in that of `Nc1ccc(C(=O)N/N=C/c2cn(Cc3ccccc3F)c3ccccc23)cc1`, 4.47 µM [falling, partial curve]; in that of `COc1ccc(-c2cn3c(C)c(C(=O)Nc4cc(NC(C)=O)ccc4OC)sc3n2)cc1`, 11.6 µM [falling, partial curve].
For `CC(C)Cc1ccc(-c2cc(=O)[nH][nH]2)cc1`, the AC50 is 22.4 µM [falling, partial curve, poor fit] under setting [1] and 20 µM [falling, single point] under setting [2].
Take `CCOC(=O)N1CCN(C(=O)c2cc3c(-c4cccc(OC)c4)nn(C)c3s2)CC1`: the AC50 under setting [1] is 25.1 µM [falling, partial curve, poor fit].
Regarding `CSc1nsc(SCC(=O)Nc2ccccc2C(N)=O)n1`, the AC50 under setting [1] was 0.501 µM [rising, full curve, poor fit].
Consider `CC(C(=O)NC1C=CS(=O)(=O)C1)N1C(=O)/C(=C/c2cccc(Cl)c2)SC1=S` (stereo not given), for which the AC50 under setting [1] is 22.4 µM [falling, partial curve, poor fit].
Same read-out and setting: in the case of `Nc1c(C(=O)CSc2nnc(COc3ccc(Cl)cc3)o2)c(=O)[nH]c(=O)n1C1CC1` it was 1.3 µM [rising, full curve]; in that of `CC(C)c1ccc(NC(=O)c2n[nH]c(=O)c3ccccc23)cc1`, 0.447 µM [rising, full curve, poor fit].
For the compound `COc1ccc(CCNc2nc(-c3sc(C)nc3C)cs2)cc1OC`, under setting [2], the AC50 was 32.6 µM [rising, partial curve, poor fit].
As for `COc1ccc(OC)c(NC(=O)Nc2nnc(N3CCCCC3C)s2)c1` (stereo not given), under setting [1], the AC50 was 12.6 µM [falling, single point].
Take `COc1ccc(C(=O)Nc2ccc3ccccc3n2)c(OC)c1OC`: the AC50 under setting [1] was 3.16 µM [rising, partial curve].
On to `CCc1ccc(S(=O)(=O)NCCc2cn3cccc(C)c3n2)s1`, for which the AC50 under setting [1] was 12.6 µM [falling, partial curve, poor fit].
`Cc1cc(C)n(CCc2nc(-c3ccc(-c4ccccc4)cc3)cs2)n1`: the AC50 under setting [1] was 6.51 µM [rising, single point].
Take `CC(=O)Nc1ccc2nc(NC(=O)COc3ccccc3C)sc2c1`: the AC50 under setting [1] is 7.94 µM [falling, partial curve].
Take `CCC(=O)Nc1ccc2c(c1)ncn2-c1ccc(OC)cc1`: the AC50 under setting [1] is 29.1 µM [rising, single point].
`CCC(=NCc1ccccc1)C1=C(O)C(C(=O)OC)C(C)(C)CC1=O` (stereo not given): under setting [1], the AC50 was 11.2 µM [rising, partial curve, poor fit].
As for `O=C(CCN1CCOCC1)Nc1ccc2c(c1)N(C(=O)CN1CCOCC1)c1ccccc1CC2`, the AC50 under setting [1] is 6.51 µM [falling, single point].
With `Brc1ccccc1-c1nnc(COc2cccc3cccnc23)o1`, the half-maximal activity concentration (AC50) under setting [1] is 8.2 µM [falling, partial curve, poor fit].
With `COc1ccc(-c2n[nH]c(=S)o2)c(OC)c1`, the AC50 under setting [1] was 16.4 µM [rising, single point].
Turning to `NC(=O)CSc1ccc(S(=O)(=O)N2CCCCC2)cn1`, the AC50 under setting [1] was 0.103 µM [rising, full curve, poor fit].
Regarding `COc1cc(NC(=O)C2CCC(CNc3c(N4CCCCC4)c(=O)c3=O)CC2)cc(OC)c1` (stereo not given), the AC50 under setting [1] was 5.8 µM [rising, single point].
For the compound `O=C(c1ccc(N2CCN(C(=O)c3ccc(F)c(F)c3)CC2)cc1)c1cccc(F)c1`, under setting [1], the concentration at half-maximal activity (AC50) is 0.282 µM [falling, full curve, poor fit].
Turning to `COc1ccc(-c2nnn(CC(=O)N(CC(=O)NC3CCCC3)Cc3ccco3)n2)cc1OC`, the AC50 under setting [1] was 5.01 µM [rising, partial curve].
Consider `Cc1ccccc1Oc1ccc(-c2nc(N)nc(N)n2)cc1`, for which, under setting [1], the AC50 was 11.2 µM [rising, partial curve].
On to `Cc1cc(C)nc(NC(=O)C(c2ccccc2)c2ccccc2)c1`, for which, under setting [1], the AC50 was 29.1 µM [falling, partial curve, poor fit].
On the same count and under the same terms, in the case of `CC(C)N(Cc1ccccc1)C(=O)CN1C(=O)NC2(CCCC2)C1=O` it was 23.1 µM [rising, single point].

The values above are taken from PubChem BioAssay AID493014 (National Center for Advancing Translational Sciences (NCATS), 2011).
